In patent publication US20240425606A1, “ANTI-IL-11RA ANTIBODIES” (Lassen Therapeutics 1, Inc., priority 2021, published 2024):
Results are given in words; binding and its absence hold for the method and conditions named. Some entries that bind do so weakly or less than the wild type.

T1: human IL-11Rα (human, UniProt Q14626 23-363, limits assumed)
T1 construct: Protein coated on ELISA plates and used in solution for BLI; also called hIL-11Rα; hIL-11R
T1 sequence: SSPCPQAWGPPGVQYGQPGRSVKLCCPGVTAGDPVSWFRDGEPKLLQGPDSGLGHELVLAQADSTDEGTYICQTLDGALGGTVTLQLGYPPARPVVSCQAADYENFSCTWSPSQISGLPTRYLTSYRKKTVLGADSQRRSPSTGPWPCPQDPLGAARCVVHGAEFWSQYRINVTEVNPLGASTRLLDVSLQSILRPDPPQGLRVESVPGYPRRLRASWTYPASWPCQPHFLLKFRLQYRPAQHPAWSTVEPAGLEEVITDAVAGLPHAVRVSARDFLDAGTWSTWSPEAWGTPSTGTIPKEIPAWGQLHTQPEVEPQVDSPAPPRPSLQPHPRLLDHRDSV


Biological target: T1, human IL-11Rα
Experiment: BLI (Octet RED96e), AHC biosensors, qualitative assessment against mAb5

Binder	binding
mAb16 (antibody, human IgG4, V domains shown) VH: EVQLLESGGGLVQPGGSLRLSCAASGFTFSAYSMTWVRQAPGKGLEWVSSIVPYGDLTQYADSVKGRFTISRDNSKNTLYLQMNSLRAEDTAVYYCAKGPGWGSFDLWGRGTLVTVSS VL: DIQMTQSPSSLSASVGDRVTITCQASQDINNYLNWYQQKPGKAPKLLIYDASNLQTGVPSRFSGSGSGTDFTFTISSLQPEDIATYYCQQHESQSPTFGPGTKVDIK	binds
mAb17 (antibody, human IgG4, V domains shown) VH: EVQLLESGGGLVQPGGSLRLSCAASGFTFSDYSMTWVRQAPGKGLEWVSSIVPYGDLTQYADSVKGRFTISRDNSKNTLYLQMNSLRAEDTAVYYCAKGPGWGSFDLWGRGTLVTVSS VL: DIQMTQSPSSLSASVGDRVTITCQASQDINNYLNWYQQKPGKAPKLLIYDASNLQTGVPSRFSGSGSGTDFTFTISSLQPEDIATYYCQQHESQSPTFGPGTKVDIK	binds
mAb18 (antibody, human IgG4, V domains shown) VH: EVQLLESGGGLVQPGGSLRLSCAASGFTFSEYSMTWVRQAPGKGLEWVSSIVPYGDLTQYADSVKGRFTISRDNSKNTLYLQMNSLRAEDTAVYYCAKGPGWGSFDLWGRGTLVTVSS VL: DIQMTQSPSSLSASVGDRVTITCQASQDINNYLNWYQQKPGKAPKLLIYDASNLQTGVPSRFSGSGSGTDFTFTISSLQPEDIATYYCQQHESQSPTFGPGTKVDIK	binds
mAb19 (antibody, human IgG4, V domains shown) VH: EVQLLESGGGLVQPGGSLRLSCAASGFTFSFYSMTWVRQAPGKGLEWVSSIVPYGDLTQYADSVKGRFTISRDNSKNTLYLQMNSLRAEDTAVYYCAKGPGWGSFDLWGRGTLVTVSS VL: DIQMTQSPSSLSASVGDRVTITCQASQDINNYLNWYQQKPGKAPKLLIYDASNLQTGVPSRFSGSGSGTDFTFTISSLQPEDIATYYCQQHESQSPTFGPGTKVDIK	binds
mAb20 (antibody, human IgG4, V domains shown) VH: EVQLLESGGGLVQPGGSLRLSCAASGFTFSGYSMTWVRQAPGKGLEWVSSIVPYGDLTQYADSVKGRFTISRDNSKNTLYLQMNSLRAEDTAVYYCAKGPGWGSFDLWGRGTLVTVSS VL: DIQMTQSPSSLSASVGDRVTITCQASQDINNYLNWYQQKPGKAPKLLIYDASNLQTGVPSRFSGSGSGTDFTFTISSLQPEDIATYYCQQHESQSPTFGPGTKVDIK	binds
mAb22 (antibody, human IgG4, V domains shown) VH: EVQLLESGGGLVQPGGSLRLSCAASGFTFSIYSMTWVRQAPGKGLEWVSSIVPYGDLTQYADSVKGRFTISRDNSKNTLYLQMNSLRAEDTAVYYCAKGPGWGSFDLWGRGTLVTVSS VL: DIQMTQSPSSLSASVGDRVTITCQASQDINNYLNWYQQKPGKAPKLLIYDASNLQTGVPSRFSGSGSGTDFTFTISSLQPEDIATYYCQQHESQSPTFGPGTKVDIK	binds
mAb24 (antibody, human IgG4, V domains shown) VH: EVQLLESGGGLVQPGGSLRLSCAASGFTFSLYSMTWVRQAPGKGLEWVSSIVPYGDLTQYADSVKGRFTISRDNSKNTLYLQMNSLRAEDTAVYYCAKGPGWGSFDLWGRGTLVTVSS VL: DIQMTQSPSSLSASVGDRVTITCQASQDINNYLNWYQQKPGKAPKLLIYDASNLQTGVPSRFSGSGSGTDFTFTISSLQPEDIATYYCQQHESQSPTFGPGTKVDIK	binds
mAb25 (antibody, human IgG4, V domains shown) VH: EVQLLESGGGLVQPGGSLRLSCAASGFTFSMYSMTWVRQAPGKGLEWVSSIVPYGDLTQYADSVKGRFTISRDNSKNTLYLQMNSLRAEDTAVYYCAKGPGWGSFDLWGRGTLVTVSS VL: DIQMTQSPSSLSASVGDRVTITCQASQDINNYLNWYQQKPGKAPKLLIYDASNLQTGVPSRFSGSGSGTDFTFTISSLQPEDIATYYCQQHESQSPTFGPGTKVDIK	binds
mAb26 (antibody, human IgG4, V domains shown) VH: EVQLLESGGGLVQPGGSLRLSCAASGFTFSNYSMTWVRQAPGKGLEWVSSIVPYGDLTQYADSVKGRFTISRDNSKNTLYLQMNSLRAEDTAVYYCAKGPGWGSFDLWGRGTLVTVSS VL: DIQMTQSPSSLSASVGDRVTITCQASQDINNYLNWYQQKPGKAPKLLIYDASNLQTGVPSRFSGSGSGTDFTFTISSLQPEDIATYYCQQHESQSPTFGPGTKVDIK	binds
mAb27 (antibody, human IgG4, V domains shown) VH: EVQLLESGGGLVQPGGSLRLSCAASGFTFSPYSMTWVRQAPGKGLEWVSSIVPYGDLTQYADSVKGRFTISRDNSKNTLYLQMNSLRAEDTAVYYCAKGPGWGSFDLWGRGTLVTVSS VL: DIQMTQSPSSLSASVGDRVTITCQASQDINNYLNWYQQKPGKAPKLLIYDASNLQTGVPSRFSGSGSGTDFTFTISSLQPEDIATYYCQQHESQSPTFGPGTKVDIK	binds
mAb28 (antibody, human IgG4, V domains shown) VH: EVQLLESGGGLVQPGGSLRLSCAASGFTFSRYSMTWVRQAPGKGLEWVSSIVPYGDLTQYADSVKGRFTISRDNSKNTLYLQMNSLRAEDTAVYYCAKGPGWGSFDLWGRGTLVTVSS VL: DIQMTQSPSSLSASVGDRVTITCQASQDINNYLNWYQQKPGKAPKLLIYDASNLQTGVPSRFSGSGSGTDFTFTISSLQPEDIATYYCQQHESQSPTFGPGTKVDIK	binds
mAb30 (antibody, human IgG4, V domains shown) VH: EVQLLESGGGLVQPGGSLRLSCAASGFTFSTYSMTWVRQAPGKGLEWVSSIVPYGDLTQYADSVKGRFTISRDNSKNTLYLQMNSLRAEDTAVYYCAKGPGWGSFDLWGRGTLVTVSS VL: DIQMTQSPSSLSASVGDRVTITCQASQDINNYLNWYQQKPGKAPKLLIYDASNLQTGVPSRFSGSGSGTDFTFTISSLQPEDIATYYCQQHESQSPTFGPGTKVDIK	binds
mAb32 (antibody, human IgG4, V domains shown) VH: EVQLLESGGGLVQPGGSLRLSCAASGFTFSYYSMTWVRQAPGKGLEWVSSIVPYGDLTQYADSVKGRFTISRDNSKNTLYLQMNSLRAEDTAVYYCAKGPGWGSFDLWGRGTLVTVSS VL: DIQMTQSPSSLSASVGDRVTITCQASQDINNYLNWYQQKPGKAPKLLIYDASNLQTGVPSRFSGSGSGTDFTFTISSLQPEDIATYYCQQHESQSPTFGPGTKVDIK	binds

Biological target: T1, human IL-11Rα
Experiment: BLI (Octet RED96e), mAb on protein G biosensors, hIL-11Rα in solution
Experimental: Association was carried out in the presence of a 2-fold dilution series of hIL-11Rα and was allowed to proceed for 120 seconds; dissociation was measured for 300 to 1200 seconds.

Binder	binding
mAb5 (antibody, V domains shown, Expressed as human IgG4 (S228P EU); also called mAb5 IL11RA Ab) VH: EVQLLESGGGLVQPGGSLRLSCAASGFTFSWYSMTWVRQAPGKGLEWVSSIVPYGDLTQYADSVKGRFTISRDNSKNTLYLQMNSLRAEDTAVYYCAKGPGWGSFDLWGRGTLVTVSS VL: DIQMTQSPSSLSASVGDRVTITCQASQDINNYLNWYQQKPGKAPKLLIYDASNLQTGVPSRFSGSGSGTDFTFTISSLQPEDIATYYCQQHESQSPTFGPGTKVDIK	binds
mAb6 (antibody, V domains shown, Expressed as human IgG4 (S228P EU)) VH: EVQLLESGGGLVQPGGSLRLSCAASGFTFSWYSMTWVRQAPGKGLEWVSSIVPYGDLTQYADSVKGRFTISRDNSKNTLYLQMNSLRAEDTAVYYCAKGPGWGSFDLWGRGTLVTVSS VL: DIQMTQSPSSLSASVGDRVTITCQASQDINNYLNWYQQKPGKAPKLLIYDASNLQTGVPSRFSGSGSGTDFTFTISSLQPEDIATYYCQQHEFQSPTFGPGTKVDIK	binds
mAb7 (antibody, V domains shown, Expressed as human IgG4 (S228P EU)) VH: EVQLLESGGGLVQPGGSLRLSCAASGFTFSNYAMSWVRQAPGKGLEWVSSIVPYGDLTQYADSVKGRFTISRDNSKNTLYLQMNSLRAEDTAVYYCAKGPGWGSFDLWGRGTLVTVSS VL: DIQMTQSPSSLSASVGDRVTITCQASQDINNYLNWYQQKPGKAPKLLIYDASNLQTGVPSRFSGSGSGTDFTFTISSLQPEDIATYYCQQHESQSPTFGPGTKVDIK	binds
mAb8 (antibody, V domains shown, Expressed as human IgG4 (S228P EU)) VH: EVQLLESGGGLVQPGGSLRLSCAASGFTFSSYAMSWVRQAPGKGLEWVSSIVPYGDLTQYADSVKGRFTISRDNSKNTLYLQMNSLRAEDTAVYYCAKGPGWGSFDLWGRGTLVTVSS VL: DIQMTQSPSSLSASVGDRVTITCQASQDINNYLNWYQQKPGKAPKLLIYDASNLQTGVPSRFSGSGSGTDFTFTISSLQPEDIATYYCQQHESQSPTFGPGTKVDIK	binds
mAb9 (antibody, V domains shown, Expressed as human IgG4 (S228P EU)) VH: EVQLLESGGGLVQPGGSLRLSCAASGFTFSWYSMTWVRQAPGKGLEWVSGIVPYGDLTQYADSVKGRFTISRDNSKNTLYLQMNSLRAEDTAVYYCAKGPGWGSFDLWGRGTLVTVSS VL: DIQMTQSPSSLSASVGDRVTITCQASQDINNYLNWYQQKPGKAPKLLIYDASNLQTGVPSRFSGSGSGTDFTFTISSLQPEDIATYYCQQHESQSPTFGPGTKVDIK	binds
mAb12 (antibody, V domains shown, Expressed as human IgG4 (S228P EU)) VH: EVQLLESGGGLVQPGGSLRLSCAASGFTFSWYSMTWVRQAPGKGLEWVSSIVPYGDLTQYADSVKGRFTISRDNSKNTLYLQMNSLRAEDTAVYYCAKGPGWYSFDLWGRGTLVTVSS VL: DIQMTQSPSSLSASVGDRVTITCQASQDINNYLNWYQQKPGKAPKLLIYDASNLQTGVPSRFSGSGSGTDFTFTISSLQPEDIATYYCQQHESQSPTFGPGTKVDIK	binds
mAb13 (antibody, V domains shown, Expressed as human IgG4 (S228P EU)) VH: EVQLLESGGGLVQPGGSLRLSCAASGFTFSWYSMTWVRQAPGKGLEWVSSIVPYGDLTQYADSVKGRFTISRDNSKNTLYLQMNSLRAEDTAVYYCAKPEDWGRFDLWGRGTLVTVSS VL: DIQMTQSPSSLSASVGDRVTITCQASQDINNYLNWYQQKPGKAPKLLIYDASNLQTGVPSRFSGSGSGTDFTFTISSLQPEDIATYYCQQHESQSPTFGPGTKVDIK	binds
